Measurements published in patent US11065314B2, “Peptides and combination of peptides for use in immunotherapy against breast cancer and other cancers” (Immatics Biotechnologies GmbH, priority 2015, dated 2021).

What was measured:
[1] = test system: tumor samples of other cancer types; assay: LC-MS detection of the HLA-presented peptide on samples of other tumor types (FIGS. 1A-1D); design: species or system human
[2] = test system: breast cancer samples vs. panel of normal tissues; assay: Label-free LC-MS quantitation of HLA-presented peptides (presentation profile, over-presentation score); design: species or system human; key: very highly over-presented on tumors compared to a panel of normal tissues (+++); highly over-presented on tumors compared to a panel of normal tissues (++); over-presented on tumors compared to a panel of normal tissues (+); conditions: breast cancer tumors compared to a panel of normal tissues
[3] = gallbladder and bile duct cancers

Row | Sequence | Peptide Presentation (presentation score) [2] | other results
1 | FSFPVSVGV (listed as Homo sapiens) [SEQ ID NO: 20, HLA-A*02 peptide, source gene DUSP4] |  | peptide additionally detected on tumor samples (positive/measured) [1, 3]: 2/6; peptide additionally detected on tumor samples (positive/measured) ([1]; gastric cancers): 7/47; peptide additionally detected on tumor samples (positive/measured) ([1]; melanomas): 8/12; peptide additionally detected on tumor samples (positive/measured) ([1]; non-Hodgkin lymphomas): 10/20; peptide additionally detected on tumor samples (positive/measured) ([1]; non-small cell lung cancers): 23/89; peptide additionally detected on tumor samples (positive/measured) ([1]; ovarian cancers): 2/20; peptide additionally detected on tumor samples (positive/measured) ([1]; pancreatic cancers): 2/19; peptide additionally detected on tumor samples (positive/measured) ([1]; renal cell cancers): 2/18; peptide additionally detected on tumor samples (positive/measured) ([1]; small cell lung cancers): 2/17; peptide additionally detected on tumor samples (positive/measured) ([1]; urinary bladder cancers): 6/15; peptide additionally detected on tumor samples (positive/measured) ([1]; uterine cancers): 2/15
2 | GLSYIYNTV (listed as Homo sapiens) [SEQ ID NO: 31, HLA-A*02 peptide, source gene COG6] | ++ | 
3 | SLLSEIQAL (listed as Homo sapiens) [SEQ ID NO: 35, HLA-A*02 peptide, source genes AKAP9, PCNT] | ++ | 
4 | KQLELELEV (listed as Homo sapiens) [SEQ ID NO: 14, HLA-A*02 peptide, source gene MUC6] | +++ | 
5 | ALNPVIYTV (listed as Homo sapiens) [SEQ ID NO: 5, HLA-A*02 peptide, source gene DRD4] | +++ | 
6 | SLFPSLVVV (listed as Homo sapiens) [SEQ ID NO: 15, HLA-A*02 peptide, source gene PLEC] | +++ | 
7 | TIASSIEKA (listed as Homo sapiens) [SEQ ID NO: 17, HLA-A*02 peptide, source gene STPG2] | +++ | 
8 | GLLGFQAEA (listed as Homo sapiens) [SEQ ID NO: 24, HLA-A*02 peptide, source gene MAGED1] |  | peptide additionally detected on tumor samples (positive/measured) ([1]; acute myeloid leukemias): 4/21; peptide additionally detected on tumor samples (positive/measured) ([1]; brain cancers): 6/31; peptide additionally detected on tumor samples (positive/measured) ([1]; chronic lymphocytic leukemias): 1/17; peptide additionally detected on tumor samples (positive/measured) ([1]; colorectal cancers): 2/27; peptide additionally detected on tumor samples (positive/measured) ([1]; esophageal cancers): 3/18; peptide additionally detected on tumor samples (positive/measured) [1, 3]: 1/6; peptide additionally detected on tumor samples (positive/measured) ([1]; gastric cancers): 3/47; peptide additionally detected on tumor samples (positive/measured) ([1]; hepatocellular cancers): 3/18; peptide additionally detected on tumor samples (positive/measured) ([1]; melanomas): 3/12; peptide additionally detected on tumor samples (positive/measured) ([1]; non-Hodgkin lymphomas): 6/20; peptide additionally detected on tumor samples (positive/measured) ([1]; non-small cell lung cancers): 12/89; peptide additionally detected on tumor samples (positive/measured) ([1]; ovarian cancers): 7/20; peptide additionally detected on tumor samples (positive/measured) ([1]; pancreatic cancers): 1/19; peptide additionally detected on tumor samples (positive/measured) ([1]; prostate cancers): 2/48; peptide additionally detected on tumor samples (positive/measured) ([1]; renal cell cancers): 2/18; peptide additionally detected on tumor samples (positive/measured) ([1]; uterine cancers): 3/15
9 | KLYEGIPVL (listed as Homo sapiens) [SEQ ID NO: 13, HLA-A*02 peptide, source gene NEK10] | +++ | 
10 | KAFPFYNTV (listed as Homo sapiens) [SEQ ID NO: 12, HLA-A*02 peptide, source gene NAIP] | +++ | 
11 | ILLPPAHNJQ (ILLPPAHNSQ; phospho-serine; listed as Homo sapiens) [SEQ ID NO: 3, HLA-A*02 peptide, source gene HEATR5B; J = phospho-serine] | +++ | 
12 | SLAEPRVSV (listed as Homo sapiens) [SEQ ID NO: 27, HLA-A*02 peptide, source gene FASN] | + | 
13 | ALAGSSPQV (listed as Homo sapiens) [SEQ ID NO: 2, HLA-A*02 peptide, source gene CNTD2] | +++ | 
14 | SLVEGEAVHLA (listed as Homo sapiens) [SEQ ID NO: 4, HLA-A*02 peptide, source genes TFAP2E, TFAP2A, TFAP2B, TFAP2C] | +++ | peptide additionally detected on tumor samples (positive/measured) ([1]; esophageal cancers): 1/18; peptide additionally detected on tumor samples (positive/measured) [1, 3]: 1/6; peptide additionally detected on tumor samples (positive/measured) ([1]; non-small cell lung cancers): 1/89; peptide additionally detected on tumor samples (positive/measured) ([1]; ovarian cancers): 1/20
15 | SAFPEVRSL (listed as Homo sapiens) [SEQ ID NO: 34, HLA-A*02 peptide, source gene THADA] | + | 
16 | GLHSLPPEV (listed as Homo sapiens) [SEQ ID NO: 10, HLA-A*02 peptide, source gene LRRC8E] | +++ | 
17 | KMPEHISTV (listed as Homo sapiens) [SEQ ID NO: 1, HLA-A*02 peptide, source gene CILP] | +++ | peptide additionally detected on tumor samples (positive/measured) ([1]; non-small cell lung cancers): 2/89; peptide additionally detected on tumor samples (positive/measured) ([1]; pancreatic cancers): 1/19
18 | TLLGLAVNV (listed as Homo sapiens) [SEQ ID NO: 36, HLA-A*02 peptide, source gene CHPT1] | ++ | 
19 | GLLPTSVSPRV (listed as Homo sapiens) [SEQ ID NO: 11, HLA-A*02 peptide, source gene SCUBE2] | +++ | 

Row | Sequence | Peptide Presentation (presentation score) [2] | other results
20 | SLLTEPALV (listed as Homo sapiens) [SEQ ID NO: 21, HLA-A*02 peptide, source gene TBC1D9] | ++ | 
21 | ILTELPPGV (listed as Homo sapiens) [SEQ ID NO: 33, HLA-A*02 peptide, source gene ZNF407] | +++ | 
22 | YILLQSPQL (listed as Homo sapiens) [SEQ ID NO: 18, HLA-A*02 peptide, source gene MUC6] | +++ | 
23 | SLADAVEKV (listed as Homo sapiens) [SEQ ID NO: 23, HLA-A*02 peptide, source gene CCDC122] | ++ | 
24 | FLSSEAANV (listed as Homo sapiens) [SEQ ID NO: 30, HLA-A*02 peptide, source gene TNFAIP2] | +++ | 
25 | GLVATLQSL (listed as Homo sapiens) [SEQ ID NO: 32, HLA-A*02 peptide, source gene IFI6] | ++ | 
26 | ALTALQNYL (listed as Homo sapiens) [SEQ ID NO: 6, HLA-A*02 peptide, source gene TFAP2B] | +++ | 
27 | GLVQSLTSI (listed as Homo sapiens) [SEQ ID NO: 8, HLA-A*02 peptide, source gene ABCC11] | +++ | 
28 | KLLDMELEM (listed as Homo sapiens) [SEQ ID NO: 39, HLA-A*02 peptide, source gene FAH] | ++ | 
29 | SLAWDVPAA (listed as Homo sapiens) [SEQ ID NO: 26, HLA-A*02 peptide, source gene FASN] | ++ | 
30 | FMSKLVPAI (listed as Homo sapiens) [SEQ ID NO: 9, HLA-A*02 peptide, source gene TPRG1] | +++ | 
31 | FIIPTVATA (listed as Homo sapiens) [SEQ ID NO: 7, HLA-A*02 peptide, source gene ABCC11] | +++ | 
32 | LLMUVAGLKL (LLMTVAGLKL; phospho-threonine; listed as Homo sapiens) [SEQ ID NO: 38, HLA-A*02 peptide, source gene PCNXL3; U = phospho-threonine] | +++ | 
33 | SMMGLLTNL (listed as Homo sapiens) [SEQ ID NO: 16, HLA-A*02 peptide, source gene ESR1] | +++ | 
34 | YIDGLESRV (listed as Homo sapiens) [SEQ ID NO: 22, HLA-A*02 peptide, source gene CREB3L4] | ++ | 
35 | FLDEEVKLI (listed as Homo sapiens) [SEQ ID NO: 43, HLA-A*02 peptide, source gene FTL] | + | 
36 | ALEEQLHQV (listed as Homo sapiens) [SEQ ID NO: 19, HLA-A*02 peptide, source genes KRT25, KRT28, KRT27] | +++ | 
37 | SAAFPGASL (listed as Homo sapiens) [SEQ ID NO: 40, HLA-A*02 peptide, source gene DAZAP2] | ++ | 
38 | VLAHITADI (listed as Homo sapiens) [SEQ ID NO: 37, HLA-A*02 peptide, source gene KDM5B] | +++ | 
